Data from the supplement of paper PMC7661543.
± gives the standard deviation of the averaged measurements. Differences between knockout arms are mostly noise.

System: ZR-75-1
Experiment: relative cell number vs DMSO control (72 h) (% of DMSO); higher = less growth inhibition (more cells)
Protocol: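 QMAP-Seq: a pool of 5 breast cancer cell lines (ZR-75-1, SKBR3, HCC-38, MDA-MB-231, BT-20), each carrying 12 doxycycline-inducible Cas9 sgRNA perturbations (11 knockouts plus non-targeting sgNT), was treated with compounds for 72 h at four 10-fold doses (10 nM-10 uM or 1 nM-1 uM range). Barcodes were amplified and sequenced, and cell number was interpolated from 293T spike-in standard curves. The result is expressed as % of the median of DMSO wells. Two biological replicates.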

[1] = sgRNA knockout: sgATF3, 1000 nM
[2] = sgRNA knockout: sgATF4, 1000 nM
[3] = sgRNA knockout: sgATF6, 1000 nM
[4] = sgRNA knockout: sgATG7, 1000 nM
[5] = sgRNA knockout: sgERN1, 1000 nM
[6] = sgRNA knockout: sgHSF2, 1000 nM
[7] = sgRNA knockout: sgNFE2L2, 10 nM
[8] = sgRNA knockout: sgNFE2L2, 100 nM
[9] = sgRNA knockout: sgNFE2L2, 1000 nM
[10] = sgRNA knockout: sgSLC35F2, 1 nM
[11] = sgRNA knockout: sgSLC35F2, 10 nM
[12] = sgRNA knockout: sgSLC35F2, 100 nM
[13] = sgRNA knockout: sgSLC35F2, 1000 nM
[14] = sgRNA knockout: sgXBP1, 1000 nM
[15] = sgRNA knockout: sgATF3, 10000 nM
[16] = sgRNA knockout: sgATF4, 10000 nM
[17] = sgRNA knockout: sgATF6, 10000 nM
[18] = sgRNA knockout: sgATG7, 10000 nM
[19] = sgRNA knockout: sgERN1, 10000 nM
[20] = sgRNA knockout: sgHSF2, 10000 nM
[21] = sgRNA knockout: sgNFE2L2, 10000 nM
[22] = sgRNA knockout: sgSLC35F2, 10000 nM
[23] = sgRNA knockout: sgXBP1, 10000 nM

Row | Structure (SMILES) | relative cell number (sgRNA knockout: sgATF3, 10 nM) | relative cell number (sgRNA knockout: sgATF3, 100 nM) | relative cell number [1] | relative cell number (sgRNA knockout: sgATF4, 10 nM) | relative cell number (sgRNA knockout: sgATF4, 100 nM) | relative cell number [2] | relative cell number (sgRNA knockout: sgATF6, 10 nM) | relative cell number (sgRNA knockout: sgATF6, 100 nM) | relative cell number [3] | relative cell number (sgRNA knockout: sgATG7, 10 nM) | relative cell number (sgRNA knockout: sgATG7, 100 nM) | relative cell number [4] | relative cell number (sgRNA knockout: sgERN1, 10 nM) | relative cell number (sgRNA knockout: sgERN1, 100 nM) | relative cell number [5] | relative cell number (sgRNA knockout: sgHSF2, 10 nM) | relative cell number (sgRNA knockout: sgHSF2, 100 nM) | relative cell number [6] | relative cell number [7] | relative cell number [8] | also measured
1 | CC(C)(C#N)c1cc(Cn2cncn2)cc(C(C)(C)C#N)c1 [Anastrozole] | 90.2 ± 32 | 117.4 ± 1.1 | 92.9 ± 5.6 | 131 ± 66 | 114 ± 4.5 | 112 ± 22 | 84.6 ± 2 | 114 ± 18 | 87.5 ± 30 | 99.1 ± 15 | 102 ± 4 | 120 ± 34 | 86.8 ± 5.5 | 112 ± 38 | 94.6 ± 20 | 102 ± 14 | 98.2 ± 8 | 118 ± 18 | 80.5 ± 47 | 98.7 ± 16 | relative cell number (sgRNA knockout: sgATF3, 1 nM): 101 ± 36; relative cell number (sgRNA knockout: sgATF4, 1 nM): 102 ± 19; relative cell number (sgRNA knockout: sgATF6, 1 nM): 125 ± 29; relative cell number (sgRNA knockout: sgATG7, 1 nM): 139 ± 40; relative cell number (sgRNA knockout: sgERN1, 1 nM): 91.6 ± 12; relative cell number (sgRNA knockout: sgHSF2, 1 nM): 107 ± 11; relative cell number (sgRNA knockout: sgNFE2L2, 1 nM): 122.1 ± 0.74; relative cell number [9]: 111 ± 14; relative cell number [10]: 104 ± 60; relative cell number [11]: 76.1 ± 51; relative cell number [12]: 101 ± 49; relative cell number [13]: 94 ± 21; relative cell number (sgRNA knockout: sgXBP1, 1 nM): 107 ± 3; relative cell number (sgRNA knockout: sgXBP1, 10 nM): 72.6 ± 23; relative cell number (sgRNA knockout: sgXBP1, 100 nM): 97.3 ± 12; relative cell number [14]: 103 ± 6.6
2 | C[C@H]1CCC/C=C/[C@@H]2C[C@H](O)C[C@H]2[C@H](O)/C=C/C(=O)O1 [BrefeldinA] | 114 ± 3 | 18.2 ± 1.2 | 10.9 ± 10 | 121 ± 21 | 20.8 ± 5.6 | 11.5 ± 7.4 | 150 ± 86 | 17.3 ± 9.1 | 5.53 ± 4.3 | 105 ± 24 | 16.3 ± 12 | 8.17 ± 4.2 | 118 ± 35 | 24.9 ± 2.2 | 9.21 ± 5.2 | 106 ± 25 | 19 ± 11 | 10.6 ± 5.7 | 107 ± 32 | 15.2 ± 6.3 | relative cell number [15]: 3.69 ± 0.76; relative cell number [16]: 6.17 ± 3.3; relative cell number [17]: 2.95 ± 0.4; relative cell number [18]: 5.43 ± 0.96; relative cell number [19]: 6.8 ± 1.1; relative cell number [20]: 6.63 ± 0.81; relative cell number [9]: 10.9 ± 4.6; relative cell number [21]: 5.31 ± 2; relative cell number [11]: 85.2 ± 13; relative cell number [12]: 16.3 ± 3.9; relative cell number [13]: 2.55 ± 0.31; relative cell number [22]: 10.3 ± 2.6; relative cell number (sgRNA knockout: sgXBP1, 10 nM): 99.5 ± 22; relative cell number (sgRNA knockout: sgXBP1, 100 nM): 17.15 ± 0.15; relative cell number [14]: 9 ± 3.8; relative cell number [23]: 3.93 ± 0.78
3 | COc1cc2nccc(Oc3ccc(NC(=O)C4(C(=O)Nc5ccc(F)cc5)CC4)cc3)c2cc1OC [Cabozantinib] | 83.2 ± 11 | 99.5 ± 19 | 105 ± 29 | 117 ± 11 | 93.6 ± 7.4 | 96.2 ± 22 | 105 ± 4.9 | 93.9 ± 58 | 94.8 ± 24 | 92.8 ± 12 | 74.5 ± 51 | 85.2 ± 2.1 | 93.2 ± 19 | 114 ± 19 | 106 ± 37 | 94.4 ± 20 | 113 ± 13 | 92.9 ± 14 | 90.3 ± 35 | 94.5 ± 1.8 | relative cell number [15]: 47.2 ± 21; relative cell number [16]: 34.2 ± 12; relative cell number [17]: 26.2 ± 8.5; relative cell number [18]: 34.8 ± 18; relative cell number [19]: 47.7 ± 0.83; relative cell number [20]: 37.3 ± 14; relative cell number [9]: 89.1 ± 34; relative cell number [21]: 33.8 ± 7.6; relative cell number [11]: 118 ± 20; relative cell number [12]: 85 ± 28; relative cell number [13]: 63.3 ± 58; relative cell number [22]: 37.9 ± 28; relative cell number (sgRNA knockout: sgXBP1, 10 nM): 79.7 ± 3.9; relative cell number (sgRNA knockout: sgXBP1, 100 nM): 103 ± 34; relative cell number [14]: 102 ± 40; relative cell number [23]: 36.4 ± 14
4 | CC(C)C[C@H](NC(=O)[C@H](CCc1ccccc1)NC(=O)CN1CCOCC1)C(=O)N[C@@H](Cc1ccccc1)C(=O)N[C@@H](CC(C)C)C(=O)[C@@]1(C)CO1 [Carfilzomib] | 103 ± 19 | 27.4 ± 14 | 5.76 ± 1.3 | 54.7 ± 16 | 30 ± 13 | 5.17 ± 1 | 88.9 ± 14 | 27.8 ± 6.4 | 4.17 ± 1.4 | 97.4 ± 32 | 29.3 ± 17 | 8.76 ± 0.14 | 76.7 ± 8.4 | 34.1 ± 13 | 6.05 ± 1.8 | 89.8 ± 7.4 | 27.6 ± 12 | 4.47 ± 1.3 | 96.9 ± 8.8 | 30 ± 11 | relative cell number (sgRNA knockout: sgATF3, 1 nM): 102 ± 28; relative cell number (sgRNA knockout: sgATF4, 1 nM): 76.8 ± 17; relative cell number (sgRNA knockout: sgATF6, 1 nM): 50.7 ± 8.1; relative cell number (sgRNA knockout: sgATG7, 1 nM): 105 ± 51; relative cell number (sgRNA knockout: sgERN1, 1 nM): 85.5 ± 29; relative cell number (sgRNA knockout: sgHSF2, 1 nM): 94.3 ± 31; relative cell number (sgRNA knockout: sgNFE2L2, 1 nM): 69.3 ± 5.4; relative cell number [9]: 7 ± 1.1; relative cell number [10]: 57.2 ± 27; relative cell number [11]: 63.6 ± 21; relative cell number [12]: 40.2 ± 14; relative cell number [13]: 2.5 ± 1.4; relative cell number (sgRNA knockout: sgXBP1, 1 nM): 75.2 ± 16; relative cell number (sgRNA knockout: sgXBP1, 10 nM): 73.05 ± 0.25; relative cell number (sgRNA knockout: sgXBP1, 100 nM): 26.7 ± 5.8; relative cell number [14]: 4.83 ± 1
5 | N.N.[Cl][Pt][Cl] [Cisplatin] | 108 ± 32 | 93.5 ± 3.7 | 117 ± 2.7 | 94.5 ± 7.8 | 79.7 ± 7.2 | 137 ± 52 | 95 ± 34 | 80.9 ± 15 | 90.1 ± 9.7 | 107 ± 3.6 | 87.8 ± 21 | 86.9 ± 29 | 93.9 ± 18 | 85.6 ± 1.8 | 113 ± 68 | 90.8 ± 2.9 | 95.4 ± 5 | 123 ± 26 | 144 ± 19 | 82.9 ± 17 | relative cell number [15]: 98.8 ± 3.1; relative cell number [16]: 73.8 ± 20; relative cell number [17]: 151 ± 65; relative cell number [18]: 94.8 ± 13; relative cell number [19]: 98 ± 10; relative cell number [20]: 93.6 ± 22; relative cell number [9]: 122 ± 8.9; relative cell number [21]: 102 ± 18; relative cell number [11]: 116 ± 44; relative cell number [12]: 92 ± 68; relative cell number [13]: 117 ± 34; relative cell number [22]: 83.5 ± 13; relative cell number (sgRNA knockout: sgXBP1, 10 nM): 114 ± 8.5; relative cell number (sgRNA knockout: sgXBP1, 100 nM): 82.3 ± 9; relative cell number [14]: 128 ± 4.8; relative cell number [23]: 94.5 ± 1.4
6 | C[C@@H](Oc1cc(-c2cnn(C3CCNCC3)c2)cnc1N)c1c(Cl)ccc(F)c1Cl [Crizotinib] | 87.7 ± 56 | 115 ± 5.4 | 36.3 ± 5.6 | 86.5 ± 13 | 115 ± 2.3 | 49 ± 14 | 71.6 ± 3.3 | 107 ± 31 | 45.4 ± 0.87 | 105 ± 32 | 100.9 ± 0.64 | 46.7 ± 8.1 | 90.7 ± 15 | 86.7 ± 4.3 | 46 ± 9.4 | 84 ± 15 | 78.3 ± 9.5 | 35.4 ± 8 | 135 ± 43 | 102 ± 7.4 | relative cell number [15]: 16 ± 2.8; relative cell number [16]: 13.78 ± 0.1; relative cell number [17]: 24.2 ± 15; relative cell number [18]: 24.1 ± 11; relative cell number [19]: 30 ± 16; relative cell number [20]: 25.7 ± 5.7; relative cell number [9]: 43.8 ± 1.9; relative cell number [21]: 22.7 ± 10; relative cell number [11]: 45.6 ± 14; relative cell number [12]: 118 ± 13; relative cell number [13]: 33 ± 17; relative cell number [22]: 21.4 ± 0.4; relative cell number (sgRNA knockout: sgXBP1, 10 nM): 108 ± 23; relative cell number (sgRNA knockout: sgXBP1, 100 nM): 88.9 ± 17; relative cell number [14]: 46.6 ± 2.4; relative cell number [23]: 20.9 ± 8.5
7 | CN(C)/N=N/c1[nH]cnc1C(N)=O [Dacarbazine] | 81 ± 20 | 104 ± 9.2 | 109 ± 7 | 130 ± 46 | 99.4 ± 12 | 102 ± 32 | 102 ± 27 | 94.5 ± 2.9 | 103 ± 23 | 68.1 ± 10 | 89.3 ± 14 | 102 ± 39 | 95.5 ± 36 | 123 ± 18 | 88.6 ± 11 | 89.5 ± 15 | 93.8 ± 2.7 | 120 ± 23 | 150 ± 1.6 | 114 ± 24 | relative cell number [15]: 108 ± 32; relative cell number [16]: 114 ± 1.4; relative cell number [17]: 95 ± 36; relative cell number [18]: 96.9 ± 19; relative cell number [19]: 85.6 ± 12; relative cell number [20]: 113 ± 47; relative cell number [9]: 91.5 ± 15; relative cell number [21]: 126 ± 2.7; relative cell number [11]: 70.8 ± 40; relative cell number [12]: 73.7 ± 5.3; relative cell number [13]: 74.2 ± 22; relative cell number [22]: 68.7 ± 56; relative cell number (sgRNA knockout: sgXBP1, 10 nM): 123 ± 1.7; relative cell number (sgRNA knockout: sgXBP1, 100 nM): 107 ± 14; relative cell number [14]: 84.9 ± 11; relative cell number [23]: 100 ± 21
